The target in assay [1] is T1, scUtp1-FTpA (S. cerevisiae) (UniProt P25635).
T1 sequence: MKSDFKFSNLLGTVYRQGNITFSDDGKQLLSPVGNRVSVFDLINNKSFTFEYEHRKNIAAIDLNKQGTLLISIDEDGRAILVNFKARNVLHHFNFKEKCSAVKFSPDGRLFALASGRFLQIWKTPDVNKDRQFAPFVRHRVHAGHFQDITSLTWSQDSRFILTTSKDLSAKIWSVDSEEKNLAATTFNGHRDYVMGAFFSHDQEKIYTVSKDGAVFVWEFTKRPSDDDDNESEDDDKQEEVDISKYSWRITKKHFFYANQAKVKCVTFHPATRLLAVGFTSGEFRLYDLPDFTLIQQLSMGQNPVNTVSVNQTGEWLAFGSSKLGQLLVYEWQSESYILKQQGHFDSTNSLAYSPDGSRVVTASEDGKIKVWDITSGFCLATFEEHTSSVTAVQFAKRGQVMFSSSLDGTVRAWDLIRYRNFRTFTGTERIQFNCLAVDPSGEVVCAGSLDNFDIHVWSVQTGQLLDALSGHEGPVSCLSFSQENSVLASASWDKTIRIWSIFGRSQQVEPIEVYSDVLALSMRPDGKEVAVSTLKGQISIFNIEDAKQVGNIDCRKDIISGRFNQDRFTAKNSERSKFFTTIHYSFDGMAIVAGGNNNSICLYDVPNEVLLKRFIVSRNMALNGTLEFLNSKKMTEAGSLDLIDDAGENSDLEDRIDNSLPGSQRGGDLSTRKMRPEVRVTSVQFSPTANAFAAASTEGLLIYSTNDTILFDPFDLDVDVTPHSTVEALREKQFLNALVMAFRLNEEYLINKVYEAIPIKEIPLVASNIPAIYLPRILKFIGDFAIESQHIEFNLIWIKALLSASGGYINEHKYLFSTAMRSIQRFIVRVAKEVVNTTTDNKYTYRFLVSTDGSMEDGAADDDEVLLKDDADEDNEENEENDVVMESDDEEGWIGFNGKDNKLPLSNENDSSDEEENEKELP
The assay is described as follows: affinity purification with mass spectrometry; tandem affinity-purification of FTpA-tagged yeast baits (IgG Sepharose, TEV, Flag agarose); SDS-PAGE, Coomassie, bands identified by mass spectrometry; cells expressing or depleted of Dim2 (GAL::scDIM2, glucose 8 h) or with or without Krr1 degradation (auxin 90 min).

Sequences of proteins named here, by UniProt entry; tags and fusion partners are left off. A change or cut given only in a name is not applied to a line headed by its entry.
UniProt P42945: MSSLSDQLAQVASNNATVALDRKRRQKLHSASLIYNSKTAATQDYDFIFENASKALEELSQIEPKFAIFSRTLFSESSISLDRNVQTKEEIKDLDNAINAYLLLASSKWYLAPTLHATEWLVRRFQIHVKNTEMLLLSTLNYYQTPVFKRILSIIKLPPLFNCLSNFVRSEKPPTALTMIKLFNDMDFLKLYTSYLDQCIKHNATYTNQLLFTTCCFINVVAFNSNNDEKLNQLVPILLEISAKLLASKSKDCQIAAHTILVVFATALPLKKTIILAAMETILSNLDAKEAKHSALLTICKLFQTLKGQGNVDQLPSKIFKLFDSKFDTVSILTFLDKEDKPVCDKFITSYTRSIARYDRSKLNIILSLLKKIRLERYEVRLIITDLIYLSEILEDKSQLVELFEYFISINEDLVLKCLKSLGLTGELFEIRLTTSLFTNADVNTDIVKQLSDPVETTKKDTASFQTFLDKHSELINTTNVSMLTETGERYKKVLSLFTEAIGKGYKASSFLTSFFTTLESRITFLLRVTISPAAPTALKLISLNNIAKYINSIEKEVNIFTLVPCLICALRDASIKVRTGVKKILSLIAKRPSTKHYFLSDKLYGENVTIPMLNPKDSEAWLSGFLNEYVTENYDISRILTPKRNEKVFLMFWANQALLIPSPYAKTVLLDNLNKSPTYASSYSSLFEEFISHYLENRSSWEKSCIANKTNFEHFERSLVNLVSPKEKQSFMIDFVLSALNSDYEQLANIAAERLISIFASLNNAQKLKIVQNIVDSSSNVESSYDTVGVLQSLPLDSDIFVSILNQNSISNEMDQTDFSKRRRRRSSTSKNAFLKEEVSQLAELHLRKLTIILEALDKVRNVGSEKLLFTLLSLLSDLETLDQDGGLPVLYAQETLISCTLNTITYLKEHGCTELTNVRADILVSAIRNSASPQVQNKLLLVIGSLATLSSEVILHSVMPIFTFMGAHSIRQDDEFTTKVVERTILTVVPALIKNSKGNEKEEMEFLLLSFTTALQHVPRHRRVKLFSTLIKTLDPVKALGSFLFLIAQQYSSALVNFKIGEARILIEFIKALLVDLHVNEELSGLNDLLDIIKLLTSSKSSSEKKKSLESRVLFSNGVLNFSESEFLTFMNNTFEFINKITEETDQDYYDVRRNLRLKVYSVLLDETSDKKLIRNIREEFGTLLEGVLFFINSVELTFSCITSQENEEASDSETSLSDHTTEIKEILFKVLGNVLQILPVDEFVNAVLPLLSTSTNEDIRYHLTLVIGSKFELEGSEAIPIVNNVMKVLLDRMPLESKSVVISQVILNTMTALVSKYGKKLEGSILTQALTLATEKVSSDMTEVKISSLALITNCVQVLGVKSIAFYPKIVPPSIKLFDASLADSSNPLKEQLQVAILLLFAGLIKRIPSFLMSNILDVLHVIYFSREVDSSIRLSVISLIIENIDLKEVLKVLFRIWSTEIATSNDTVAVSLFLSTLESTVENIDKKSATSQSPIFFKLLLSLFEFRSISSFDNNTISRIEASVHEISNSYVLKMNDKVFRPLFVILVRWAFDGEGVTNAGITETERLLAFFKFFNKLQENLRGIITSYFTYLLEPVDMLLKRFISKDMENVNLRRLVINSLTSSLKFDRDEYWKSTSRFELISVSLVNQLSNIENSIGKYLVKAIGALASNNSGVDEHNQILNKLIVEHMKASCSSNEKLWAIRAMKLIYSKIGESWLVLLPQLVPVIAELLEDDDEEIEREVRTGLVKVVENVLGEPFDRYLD
UniProt P25586: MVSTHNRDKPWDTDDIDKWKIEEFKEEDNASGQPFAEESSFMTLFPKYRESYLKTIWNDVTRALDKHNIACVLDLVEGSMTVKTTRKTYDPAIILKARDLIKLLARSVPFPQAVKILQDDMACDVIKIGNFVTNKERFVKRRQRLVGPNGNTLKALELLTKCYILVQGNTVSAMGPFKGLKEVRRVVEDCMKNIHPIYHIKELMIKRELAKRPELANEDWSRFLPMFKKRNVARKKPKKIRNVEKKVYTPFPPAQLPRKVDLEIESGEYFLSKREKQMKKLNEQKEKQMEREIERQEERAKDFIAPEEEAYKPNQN
UniProt P33442: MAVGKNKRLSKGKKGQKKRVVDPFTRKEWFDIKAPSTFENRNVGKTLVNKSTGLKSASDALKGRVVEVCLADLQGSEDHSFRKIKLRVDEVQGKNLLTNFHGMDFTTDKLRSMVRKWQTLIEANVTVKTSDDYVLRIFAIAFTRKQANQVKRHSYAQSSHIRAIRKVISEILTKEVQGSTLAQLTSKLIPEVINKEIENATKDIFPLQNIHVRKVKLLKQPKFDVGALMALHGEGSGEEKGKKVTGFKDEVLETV

The target of assay [2] is scUtp10-FTpA (S. cerevisiae) (UniProt P42945). Described as above.
For assay [3] the target is unchanged. The assay is described as follows: affinity purification with mass spectrometry; semi-quantitative mass spectrometry (1D nLC-ESI-MS-MS, MaxQuant iBAQ normalised to the bait) of FTpA eluates from depleted and non-depleted cells.
Assay [4] has as its target scKrr1-FTpA (S. cerevisiae) (UniProt P25586). Described as above.
The target is the same in assay [5]. The assay is described as follows: affinity purification with mass spectrometry; tandem affinity-purification of FTpA-tagged yeast baits (IgG Sepharose, TEV, Flag agarose); SDS-PAGE, Coomassie, bands identified by mass spectrometry; cells expressing or depleted of Dim2 (GAL::scDIM2, glucose 8 h) or with or without Krr1 degradation (auxin 90 min).

Results are given in words; binding and its absence hold for the method and conditions named. In cells and extracts the contact can be indirect. Here binding means that the protein was enriched with, or labelled near, the bait; the list need not be complete.

Our source for the binding values is PMC5738357.

For the molecule “Rps1 (endogenous, yeast) (from UniProt P33442)”, the binding entry in assay [1] and in assay [2] was “binds” in each case.

B1: Rrp7 (endogenous, yeast) (protein, UniProt P25368 1-297)
chain: MGIEDISAMKNGFIVVPFKLPDHKALPKSQEASLHFMFAKRHQSSNSNESDCLFLVNLPLLSNIEHMKKFVGQLCGKYDTVSHVEELLYNDEFGLHEVDLSALTSDLMSSTDVNEKRYTPRNTALLKFVDAASINNCWNALKKYSNLHAKHPNELFEWTYTTPSFTTFVNFYKPLDIDYLKEDIHTHMAIFEQREAQAQEDVQSSIVDEDGFTLVVGKNTKSLNSIRKKILNKNPLSKHENKAKPISNIDKKAKKDFYRFQVRERKKQEINQLLSKFKEDQERIKVMKAKRKFNPYT
On to B1, for which, in assay [3], the binding result is recorded as “binds”.

B2: Rok1 (protein, UniProt P45818 1-564)
chain: MDIFRVLTRGASVKKESGPKAKAADYSVINGNDENHKEDNNESQIVKELDFFRNKRIISKVEDDREKTTENDSPNKEEKSGNDDGLIKPVITNTVEASALRKSYKGNVSGIDIPLPIGSFEDLISRFSFDKRLLNNLIENGFTEPTPIQCECIPVALNNRDVLACGPTGSGKTLAFLIPLVQQIIDDKQTAGLKGLIISPTKELANQIFIECFKLSYKIFLEKKRPLQVALLSKSLGAKLKNKVVSDKKYDIIISTPLRLIDVVKNEALDLSKVKHLIFDEADKLFDKTFVEQSDDILSACREPSLRKAMFSATIPSNVEEIAQSIMMDPVRVIIGHKEAANTNIEQKLIFCGNEEGKLIAIRQLVQEGEFKPPIIIFLESITRAKALYHELMYDRINVDVIHAERTALQRDRIIERFKTGELWCLICTDVLARGIDFKGVNLVINYDVPGSSQAYVHRIGRTGRGGRSGKAITFYTKQDSVAIKPIINVMKQSGCEVSEWMDKMAKMTRKEKESIKNGKAHKERKQITTVPKMDKAKRRRQQEMIAASKRRKNEELSKKHFSK
On to B2, for which the binding result in assay [3] was “binds”.

B3: Dhr1 (endogenous, yeast) (protein, UniProt Q04217 1-1267)
chain: MGTYRKRFNEKARSGHMAKLKELKRIRNKQFTRQDENDERVENPDSAPAESSTTEPNANAEILEPLTEEEKKMKKRKLQELFTPKESKVSRLKKKRLDKFIEHQLKREERKTIIGKLQDYKIDTSLLTSSKRLGEGRQTKKEEFKEALSLERQGRGNEQTNEILYEEYEPKVWDEYGEGGSSEDDDGEDDFEASFGSMPKPTDNEEKKSSGFIDHRPAKFGGSGLSFGFSNIKVINKESKTPKKKYNWRQRVEMEELKKHGKEDEMDFDTTSEDDDEEEDQEEEDKMHPSENPLEEVESADSETGSEKFDQNDVANEFKDWANQEIKKLEGRDQELVTPTLNIDYKPIIRKEDLDDGLQEAYVPINENSTRKAFYVEVSRSDEIQKARIQLPVFGEEHKIMEAIHHNDVVIICGETGSGKTTQVPQFLYEAGFGAEDSPDYPGMVGITQPRRVAAVSMAERVANELGDHGHKVGYQIRFDSTAKEDTKVKFMTDGVLLREMMHDFKLTKYSSIIIDEAHERNINTDILIGMLSRCVRLRAKLHKENPIEHKKLKLIIMSATLRVSDFSENKTLFPIAPPVLQVDARQFPVSIHFNRRTAFNYTDEAFRKTCKIHQKLPPGAILVFLTGQQEITHMVKRLRKEFPFKKNSKYNKDLETPVSKMGINSKTTDLEAEDIDFSVQVIDQDKFKSAIRYEEDEGNSGNGEDEEDEEEEGFEEVLTEGQTANDPLYVLPLYSLLPTKEQMRVFQKPPQGSRLCIVATNVAETSLTIPGVRYVVDSGRSKERKYNESNGVQSFEVGWVSKASANQRSGRAGRTGPGHCYRLYSSAVFEHDFEQFSKPEILRMPVESIVLQMKSMAIHNIINFPFPTPPDRVALSKAIQLLQYLGALDNKEMITEDGKKMSLFPLSPRFSKMLLVSDEKACLPYIVAIVSALSVGDPFINEFELGINEISRKPNPDENLDDKIREHDESTPGMDPELKKELRSKFYKSRSQFSKLDKFSDVFRLLSVVSAMDYVPKEQKEIFMKKNFLRGKLMEEIVKLRKQLMYIIKSNTSKENIAVVIRNEDLKSDIPSVIQIKLLKQMICAGFVDHVAVRADVLFPDDAKITNRTSIINIPYIPVLATRTPNIEDCFVYIHPTSILNNLGEMPPKYMLYYSLHLGGNNKTRMNTLCDIASTPLANIARKGLLLTYSKPLTGQGLKTVNLSPTERYCYVVPRFGSTVDNDLKIGWDLNPIAVHQKKQKGQWTVIKFITRKGFQTITGEEKEKK
On to B3, for which the binding entry in assay [4], in assay [5] and in assay [1] was “binds” each time.

B4: Rps5 (protein, UniProt P26783 1-225)
chain: MSDTEAPVEVQEDFEVVEEFTPVVLATPIPEEVQQAQTEIKLFNKWSFEEVEVKDASLVDYVQVRQPIFVAHTAGRYANKRFRKAQCPIIERLTNSLMMNGRNNGKKLKAVRIIKHTLDIINVLTDQNPIQVVVDAITNTGPREDTTRVGGGGAARRQAVDVSPLRRVNQAIALLTIGAREAAFRNIKTIAETLAEELINAAKGSSTSYAIKKKDELERVAKSNR
For B4, the binding result in assay [1] and in assay [2] was “binds” throughout.
